In patent publication US12053527B2, “Compositions with permeation enhancers for drug delivery” (priority 2015, dated 2024):

Test: Pharmacokinetics in the OM model: ciprofloxacin in middle ear fluid and plasma
Assay type: in vivo, chinchilla
Details: blood obtained in the transverse sinus

With `O=C(O)c1cn(C2CC2)c2cc(N3CCNCC3)c(F)cc2c1=O` [ciprofloxacin] the “ciprofloxacin in plasma samples” value was “undetectable”.
